Record: PubChem BioAssay AID1159584 (Peter MacCallum Cancer Centre, 2016)
The whole screen tested about 18,000 reagents; below is a part drawn at random. Reagent sequences are not shown. Not stated in the record: the amount of reagent, the time to read-out.

Screen: 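Knock-downs that harm CDH1-null cells more than parental MCF10A cells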 (primary screen)
Cells: human MCF10A breast epithelial cells, parental and CDH1-null
Reagent: siRNA against human genes
Read-out: 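Cell viability by CellTiter-Glo ATP luminescence, each line scaled to the mean of mock wells across plates, then CDH1-null over parental ratio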
Reading the numbers: CDH1-null / parental viability ratio: higher = CDH1-null cells survive relatively better than parental; CDH1-null viability vs mock: higher = more viable CDH1-null cells; parental viability vs mock: higher = more viable parental cells

gene,CDH1-null / parental viability ratio,CDH1-null viability vs mock (fraction of mock),parental viability vs mock (fraction of mock)
TM4SF1,0.72,0.46,0.64
DCN,0.94,0.83,0.88
GBP4,0.93,0.81,0.87
PRR18,0.89,0.64,0.72
TNNI3,1.05,1.05,1
MGST3,1.11,1.09,0.98
OR2B11,1.08,0.69,0.64
TNP2,1.66,0.58,0.35
NDUFAF7,1.06,0.82,0.77
REC114,1.11,1.02,0.92
RASD1,1.07,0.64,0.6
BAGE5,1.03,0.95,0.92
ABCA13,0.86,0.72,0.84
ANKRD45,1.01,0.88,0.87
OR4L1,1.45,0.64,0.44
PDILT,0.82,0.89,1.08
OVGP1,1.92,1.23,0.64
ZNF805,1.08,0.8,0.74
OR2T11,1.31,0.8,0.61
IL17RA,0.63,0.52,0.82
ADGRV1,0.82,0.94,1.15
SLC9C1,1.14,1.14,1
SPANXN3,1.06,0.66,0.62
NLRP12,1.02,1.1,1.08
BHLHE40,0.92,0.9,0.98
CTRL,1.12,0.94,0.84
AKR7A3,1.01,0.77,0.76
GORAB,0.91,0.78,0.86
MYO1B,0.75,0.54,0.72
NBPF7P,1.13,0.8,0.71

Copied from the list.
BAGE5, CDH1-null / parental viability ratio: 1.03
Under “parental viability vs mock (fraction of mock)”, TM4SF1 reads 0.64
OR2B11, CDH1-null viability vs mock (fraction of mock): 0.69
NBPF7P, parental viability vs mock (fraction of mock): 0.71
Under “parental viability vs mock (fraction of mock)”, PRR18 has 0.72

Further reagents follow.
gene,CDH1-null / parental viability ratio,CDH1-null viability vs mock (fraction of mock),parental viability vs mock (fraction of mock)
NOL11,1.29,0.66,0.51
DPF2,0.93,0.68,0.73
WRN,0.91,0.62,0.68
FUCA2,0.55,0.51,0.92
IQCE,0.95,0.9,0.95
LILRA4,1,0.62,0.62
PSD3,1.06,0.69,0.65
STON2,0.91,0.4,0.44
SPATA31E1,1.06,0.51,0.48
CDKL4,0.91,0.92,1.01
REL,0.96,0.86,0.9
FPR2,0.97,1,1.03
PTF1A,1,0.83,0.83
PHF20,0.96,0.97,1.01
KRTAP20-2,0.81,0.35,0.43
TRIB1,0.92,0.81,0.88
